For at least one compound, name, drawing or mass did not settle the structure.
Biological target: T1, Rhodobacter sphaeroides tyrosine ammonia lyase (RsTAL), wild type (Cereibacter sphaeroides, UniProt Q3IWB0)
T1 construct: octahistidine (His8), thrombin-cleavable (N, cleaved yes); made in house; host or cells: E. coli BL21(DE3)
T1 sequence (Q3IWB0 1-523): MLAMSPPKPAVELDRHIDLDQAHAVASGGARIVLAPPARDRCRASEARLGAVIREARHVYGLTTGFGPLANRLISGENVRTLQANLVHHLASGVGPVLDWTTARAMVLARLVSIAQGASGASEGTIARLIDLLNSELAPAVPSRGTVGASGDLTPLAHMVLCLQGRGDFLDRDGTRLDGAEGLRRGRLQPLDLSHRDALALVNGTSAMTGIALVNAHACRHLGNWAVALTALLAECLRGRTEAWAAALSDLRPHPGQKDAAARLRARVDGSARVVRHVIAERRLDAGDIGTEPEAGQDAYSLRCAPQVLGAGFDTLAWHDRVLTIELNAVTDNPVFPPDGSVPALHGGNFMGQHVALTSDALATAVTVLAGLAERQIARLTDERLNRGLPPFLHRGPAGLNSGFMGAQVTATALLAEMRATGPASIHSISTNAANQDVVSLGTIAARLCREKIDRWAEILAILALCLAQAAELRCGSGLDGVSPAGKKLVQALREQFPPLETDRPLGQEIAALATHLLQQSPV
Assay: Inhibition of wild type RsTAL activity by AIP
Format: biochemical
Conditions: wt RsTAL, substrate L-Tyr

NC1(P(=O)(O)O)Cc2ccccc2C1 [AIP, 2-aminoindan-2-phosphonate]
effect of AIP on activity with L-Tyr: unaffected

— patent publication US20090011400A1, “Substrate switched ammonia lyases and mutases” (The Salk Institute for Biological Studies and The Regents …, priority 2006, published 2009)
